Laboratory results from patent US20230192767A1 (MEDIKINE, published 2023).
These are yes or no findings as the source states them, for the method shown. Some entries that bind do so weakly or less than the wild type. Tags and fused reporters may be left off the sequences shown.

What was measured:
[1] = biological target: T1, human IL-2Rβ (CD122 protein, Fc Tag) (27-239) (human) (UniProt P14784); assay: phage competition ELISA on IL-2Rβ ECD; competitor phage clone 58; + = peptide competes with phage binding
T1 sequence (looked up): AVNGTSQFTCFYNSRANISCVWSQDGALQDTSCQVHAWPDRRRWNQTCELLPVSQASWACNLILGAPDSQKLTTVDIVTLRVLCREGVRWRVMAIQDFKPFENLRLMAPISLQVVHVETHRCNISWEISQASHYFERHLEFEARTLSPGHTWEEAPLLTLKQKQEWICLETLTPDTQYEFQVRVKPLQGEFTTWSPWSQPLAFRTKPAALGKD

[2] = biological target: T1, human IL-2Rβ (CD122 protein, Fc Tag) (27-239) (human); assay: phage competition ELISA on IL-2Rβ ECD; competitor phage clone 83; + = peptide competes with phage binding
[3] = biological target: T1, human IL-2Rβ (CD122 protein, Fc Tag) (27-239) (human); assay: phage competition ELISA on IL-2Rβ ECD; competitor phage clone 1034 or 1084; + = peptide competes with phage binding
[4] = biological target: T1, human IL-2Rβ (CD122 protein, Fc Tag) (27-239) (human); assay: phage competition ELISA on IL-2Rβ ECD; competitor phage clone 170; + = peptide competes with phage binding
[5] = biological target: T2, human IL-2Rγc (CD132 protein, Fc Tag) (23-254) (human) (UniProt P31785); assay: phage competition ELISA on IL-2Rγc; competitor phage clone 198; + = peptide competes with phage binding
T2 sequence (looked up): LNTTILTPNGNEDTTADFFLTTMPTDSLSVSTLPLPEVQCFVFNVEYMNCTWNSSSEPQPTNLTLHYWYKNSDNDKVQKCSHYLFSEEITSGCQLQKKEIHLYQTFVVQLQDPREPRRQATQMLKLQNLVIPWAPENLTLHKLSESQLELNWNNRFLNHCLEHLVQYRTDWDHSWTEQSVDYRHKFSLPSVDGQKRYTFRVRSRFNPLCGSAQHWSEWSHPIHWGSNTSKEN

[6] = biological target: T2, human IL-2Rγc (CD132 protein, Fc Tag) (23-254) (human); assay: phage competition ELISA on IL-2Rγc; competitor phage clone 224; + = peptide competes with phage binding
[7] = biological target: T2, human IL-2Rγc (CD132 protein, Fc Tag) (23-254) (human); assay: phage competition ELISA on IL-2Rγc; competitor phage clone 266; + = peptide competes with phage binding
[8] = biological target: T2, human IL-2Rγc (CD132 protein, Fc Tag) (23-254) (human); assay: phage competition ELISA on IL-2Rγc; competitor phage clone 236; + = peptide competes with phage binding
[9] = biological target: T2, human IL-2Rγc (CD132 protein, Fc Tag) (23-254) (human); assay: phage competition ELISA on IL-2Rγc; competitor phage clone 248 or 1051; + = peptide competes with phage binding

Measured: binding

CYEVGDYCQSPL [IL-2Rβ ligand SEQ ID NO: 1042]
binds: [1] | [2] | [3] | [4]

RTCTEWENVVLCWV [IL-2Rγc ligand SEQ ID NO: 202]
binds: [5] | [6] | [7] | [8] | [9]

DLSDLSTFWLSQ [IL-2Rγc ligand SEQ ID NO: 1051]
binds: [5] | [6] | [7] | [8] | [9]
